Data taken from PubChem BioAssay AID2685 (National Center for Advancing Translational Sciences (NCATS), 2010).
The list shows a part of the results. Shown are side measurements of this screen, not its main read-out; they come without a call. The list favours compounds with an active or inconclusive main result. Words in brackets tell the shape of the fitted curve; partial curves, single points and poor fits give uncertain potencies.

Assay: qHTS Assay for Lipid Storage Modulators in Drosophila S3 Cells;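 for cell number change: cells counted by Cell Tracker Red CMTPX staining in the red channel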
Conditions: BODIPY lipid droplet fluorescence, 18-24 h; for cell number change: measured here: cell count max response, cells fed with added oleic acid
Procedure, shortened: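 Drosophila S3 cells got compounds at several concentrations plus oleic acid (400 uM solution). Laser-scanning cytometry with 488 nm excitation read lipid droplets at 500-530 nm and cells at 575-640 nm. Percent activity was relative to 20 uM Triacsin C.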

[1] = measured here: cell number channel AC50, cells fed with added oleic acid
[2] = measured here: lipid fluorescence (Fed channel) AC50, cells fed with added oleic acid

| Compound | cell number change [%] | AC50 [1] | AC50 [2] |
| --- | --- | --- | --- |
| O=C1CN(C(=O)c2ccc(F)c(S(=O)(=O)N3CCOCC3)c2)c2ccccc2N1 | 34.3 | 6.51 µM [rising, single point] | 25.9 µM [rising, single point] |
| O=C1CCCC2=C1C(c1c(Cl)nc3sccn13)C1=C(CCCC1=O)N2 | 27.6 |  |  |
| Cc1ccc(NC(=O)c2cc(-c3ccccc3)nn2-c2ccccc2)cc1 | 0.792 | 3.26 µM [rising, partial curve] | 2.91 µM [rising, single point] |
| N#Cc1c(C(F)(F)F)cc(-c2ccccc2)nc1SCc1nc(N)nc(N2CCOCC2)n1 | -61.1 | 29.1 µM [falling, single point] |  |
| COC(=O)C1=C(C)Nc2ncnn2C1c1ccc(OCc2ccccc2)cc1 (configuration not stated) | 42.5 | 1.03 µM [rising, full curve] | 1.46 µM [rising, partial curve] |
| Cc1cc(C(=O)CN2C(=O)C(=O)N(Cc3ccccc3)C2=O)c(C)n1-c1ccc2c(c1)OCCO2 | 22.2 | 0.411 µM [rising, full curve, poor fit] |  |
| Cc1ccccc1CC(=O)N1CCCc2ccccc21 | -20.6 |  | 18.4 µM [falling, single point] |
| Cc1ccccc1-n1nc2c(c1NC(=O)c1cc3ccccc3oc1=O)CS(=O)(=O)C2 |  | 0.116 µM [rising, full curve] | 0.461 µM [rising, full curve] |
| O=C(CN1CCN(C(=O)C2COc3ccccc3O2)CC1)Nc1ccccc1 (configuration not stated) | -48.8 | 1.84 µM [falling, partial curve, poor fit] |  |
| CN1C(=O)/C(=C\c2ccncc2)SC1=Nc1ccccc1 | 12.9 |  | 1.84 µM [rising, partial curve] |
| Cc1c(C(=O)Nc2ccccc2N2CCN(C)CC2)oc2ccc(F)cc12 | -33.8 | 20.6 µM [falling, single point] | 29.1 µM [falling, single point] |
| COc1ccc(N2C(=O)CC3(CCCC3)CC2=O)cc1 | -3.17 | 6.51 µM [rising, single point] |  |
| Cc1ccc2nc(Nc3nc(C)cc(C(F)(F)F)n3)nc(C)c2c1 | 46.2 | 9.2 µM [rising, partial curve] | 7.31 µM [rising, partial curve] |
| CC(Sc1nc(N)cc(N)n1)C(=O)NCC1CCCO1 (configuration not stated) | -55.4 | 16.4 µM [falling, single point] | 20.6 µM [falling, single point] |
| COc1ccccc1N1C(=N)S/C(=C\c2ccc(-c3ccccc3C(=O)O)o2)C1=O | 0.487 |  | 18.4 µM [rising, single point] |
| CCOC(=O)[C@H]1[C@H]2COc3ccc(OC)cc3[C@@H]2N2C(=O)CN(Cc3ccc(C)cc3)C(=O)[C@@]12C | 17.4 |  |  |
| COC(=O)Cn1c(CCS(=O)(=O)c2ccc(C)c(C)c2)nc2ccccc21 |  | 4.11 µM [rising, single point] | 6.51 µM [rising, partial curve, poor fit] |

2 entries picked at random from those above, as already listed:

| Compound | cell number change [%] | AC50 [1] | AC50 [2] |
| --- | --- | --- | --- |
| Cc1ccccc1CC(=O)N1CCCc2ccccc21 | -20.6 |  | 18.4 µM [falling, single point] |
| COc1ccccc1N1C(=N)S/C(=C\c2ccc(-c3ccccc3C(=O)O)o2)C1=O | 0.487 |  | 18.4 µM [rising, single point] |

Continued:

| Compound | cell number change [%] | AC50 [1] | AC50 [2] |
| --- | --- | --- | --- |
| COc1ccc(OC)c(NC(=O)N2CCCC(C(=O)c3ccccc3OC)C2)c1 (configuration not stated) | -29.4 |  | 29.1 µM [falling, partial curve, poor fit] |
| Cc1ccc(C(=O)OCC(=O)Nc2cc(F)ccc2F)cc1NC(=O)c1ccco1 |  | 0.291 µM [rising, partial curve, poor fit] | 0.146 µM [rising, full curve, poor fit] |
| CC(C)(C)c1ccc(-n2ncc3c2CCCC3NC(=O)CCn2cncn2)cc1 (configuration not stated) |  |  | 29.1 µM [falling, single point] |
| N#Cc1ccc(-c2ccc(F)cc2)nc1Sc1ccc(F)cc1 | 123 |  | 0.82 µM [falling, full curve] |
| Cc1cc(C)cc(C(=O)NCCC(=O)NCc2cc(=O)n(C)c(=O)n2C)c1 | -17.6 |  | 2.06 µM [rising, single point] |
| CC[N+](CC)(CC)C/C(N)=N/O | 5.77 |  | 0.0651 µM [rising, single point] |
| COc1ccccc1C(=O)COC(=O)c1cccc(-n2cnnn2)c1 | 26 |  | 4.61 µM [rising, single point] |
| CC(=O)/C(C#N)=C1\NC(=O)C(Cc2ccccc2C)S1 (configuration not stated) | -47.9 | 1.84 µM [falling, partial curve, poor fit] | 9.2 µM [falling, partial curve] |
| Cc1c(NS(=O)(=O)c2cccc(C(=O)NCc3ccccc3)c2)c(=O)n(-c2ccccc2)n1C | 66.9 | 6.51 µM [rising, full curve, poor fit] |  |
| O=c1cc(O)c2ccccc2n1Cc1ccccc1F | 5.14 |  |  |
| CC(CCc1ccccc1)NC(=O)COC(=O)C(CCC(N)=O)NC(=O)c1ccc(F)cc1 (configuration not stated) | 10.7 | 2.59 µM [falling, partial curve] | 2.59 µM [falling, partial curve] |
| Cc1c(Cl)cnc(NC(=O)COC(=O)c2cccc(S(=O)(=O)N3c4ccccc4CC3C)c2)c1Cl (configuration not stated) | -0.0784 |  | 32.6 µM [rising, single point] |
| Cc1ccc(C(C(=O)NCC2CCCO2)N(C(=O)c2snc(C(N)=O)c2N)c2ccc(C)c(C)c2)o1 (configuration not stated) | 6.67 |  |  |
| COc1ccc(NC(=O)/C(Cl)=C(/Cl)S(=O)Cc2ccccc2)cn1 (configuration not stated) | -44 | 5.8 µM [falling, partial curve] | 10.3 µM [falling, partial curve] |
| Nc1nc(COC(=O)C2CC(=O)N(Cc3ccccc3)C2)nc(Nc2ccccc2)n1 (configuration not stated) | 11.7 |  | 29.1 µM [rising, single point] |
| CCn1c(SCC(=O)c2ccc3c(c2)OCCO3)nnc1-c1ccco1 | 22.3 |  | 0.731 µM [falling, full curve, poor fit] |
| COc1ccc2[nH]cc(C(=O)CN3CCC(C)CC3)c2c1 | 8.99 |  | 29.1 µM [rising, single point] |
